From article PMC9241672 come the findings set out here.

Protein sequences can lack the tags named with them.

One may read the Kd as the free concentration of one partner at which half of the binding sites on the other are occupied at equilibrium, for simple one-to-one binding.

The target of data set [1] is T1, His-ArgR2 (Lactiplantibacillus plantarum AR195) (UniProt Q8VL04).
T1 sequence (looked up): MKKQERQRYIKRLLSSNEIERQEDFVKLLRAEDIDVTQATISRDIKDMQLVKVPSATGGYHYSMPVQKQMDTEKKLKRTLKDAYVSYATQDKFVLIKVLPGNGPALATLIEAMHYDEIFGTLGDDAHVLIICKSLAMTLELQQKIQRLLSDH
Briefly: BLI. The note with it: ArgR2 256-4097 nM; BLI: 10 mM HEPES pH 8.0, 2 mM MgCl2, 0.1 mM EDTA, 200 mM KCl, 1 per mille (w/v) BSA and 2 per mille (v/v) Tween 20 in protein buffer; temperature not stated; recombinant protein; residues 1-152; protein details: His tag (pET30a); label: biotin (universal primer S1); probe letters rebuilt from the primers and the genome.

In data set [2] the target is T1, His-ArgR2 (Lactiplantibacillus plantarum AR195). Briefly: EMSA. The settings on record: ArgR2 0.0425-0.17 mg/mL, saturated at 0.085 mg/mL; EMSA: Beyotime chemiluminescent kit, buffer not stated; recombinant protein; residues 1-152; protein details: His tag (pET30a); label: biotin (universal primer S1); probe letters rebuilt from the primers and the genome.

Regarding “AGCCAGTGGCGATAAGGCACAATGAACGGTTGCAGTATTAAGAAAATAAATCCAATTATAATGATGCGCATGTAAGCTAAGAAGGGCTGACGTGCGTTTTTATTAGCTAATTAAAGTTGGAACCACACTTTAGTTAGTTATAATTGTGAACTAACACACATGTATAAAAGCTACAGTTTAATCGTCGTAAGACTAGTACTTTTATCCATTACTCAAATAAATTTAGTGGGTTAATATGAAAGCGTAGTCAAGATAAATGACCGGTCATCAGGTTAATGTTTACTGATAAGTTAATAAAATCACAATTTCATCGAGGAGGACGCAAAACATCCTTATCGCCACTGGCT (double strand) [cla promoter probe]”, the dissociation constant (Kd) in data set [1] was < 1 pM. In data set [2], the binding result is reported as “binds”.
